Binding data for one substance are collected here from patent US20060177448A1, “Inhibiting HER2 shedding with matrix metalloprotease antagonists” (Genentech, Inc., priority 2005, published 2006).

Amino acid sequences for entries named in this document (tags omitted). Residues count along the entry.
UniProt P51511, residues 132-625: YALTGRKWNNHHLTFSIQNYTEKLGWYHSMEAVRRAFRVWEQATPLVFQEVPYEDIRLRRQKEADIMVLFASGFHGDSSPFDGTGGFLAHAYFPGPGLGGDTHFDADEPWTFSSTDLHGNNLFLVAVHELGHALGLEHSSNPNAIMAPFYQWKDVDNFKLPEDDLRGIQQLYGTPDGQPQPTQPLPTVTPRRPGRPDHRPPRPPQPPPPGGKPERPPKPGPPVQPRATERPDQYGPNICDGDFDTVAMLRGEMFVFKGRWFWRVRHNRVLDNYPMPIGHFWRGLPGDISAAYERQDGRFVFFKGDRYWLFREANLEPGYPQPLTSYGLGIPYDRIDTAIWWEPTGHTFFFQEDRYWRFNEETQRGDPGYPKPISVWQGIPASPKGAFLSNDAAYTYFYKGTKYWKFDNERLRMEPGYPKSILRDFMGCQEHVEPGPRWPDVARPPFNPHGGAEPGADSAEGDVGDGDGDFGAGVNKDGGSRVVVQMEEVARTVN

Results are given in words; binding and its absence hold for the method and conditions named. In cells and extracts the contact can be indirect. Some entries that bind do so weakly or less than the wild type.

In this test the target is Flag-HER2 (pRK5.Flag-HER2) (human) (UniProt P04626). The test can be described thus: co-immunoprecipitation from co-transfected Cos-7 cells, anti-FLAG resin, Western blot. In general terms: A western blot detects proteins with antibodies after separation by electrophoresis.

As for “soluble MMP-15 with a C-terminal V5 His epitope (sMMP-15V5His) (from UniProt P51511 132-625) (enzyme)”, the binding entry is “binds”.
